Measurements published in US20050009067A1, “Expression profile of pancreatic cancer” (priority 2003, published 2005).
Results are given in words; binding and its absence hold for the method and conditions named. Binding seen in cells or lysates may run through a third protein. Some entries that bind do so weakly or less than the wild type.

By UniProt entry, the sequences of proteins in these tests, tags left out. Residues count along the entry.
UniProt Q62151, residues 23-402: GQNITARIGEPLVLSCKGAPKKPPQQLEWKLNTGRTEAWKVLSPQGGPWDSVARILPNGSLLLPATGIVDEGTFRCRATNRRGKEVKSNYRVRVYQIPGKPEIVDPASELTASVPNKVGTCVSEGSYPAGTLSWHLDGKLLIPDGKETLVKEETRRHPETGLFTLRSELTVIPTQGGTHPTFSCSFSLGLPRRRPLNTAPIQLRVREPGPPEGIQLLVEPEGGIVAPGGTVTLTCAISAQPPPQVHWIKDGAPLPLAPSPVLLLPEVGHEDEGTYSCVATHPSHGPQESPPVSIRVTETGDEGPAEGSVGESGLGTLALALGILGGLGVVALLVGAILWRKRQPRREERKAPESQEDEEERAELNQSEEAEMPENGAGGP

Biological target: RAGE (endogenous, of NIH3T3 cells) (UniProt Q62151)
Assay: co-immunoprecipitation from lysates of S100P expressing NIH3T3 cells with S100P antibody, blot for RAGE

- binding: binds
B1: S100P expressed in NIH3T3 cells stably transfected with a full-length S100P cDNA in pcDNA3.1 (ligand, human, UniProt P25815 1-95, looked up)
chain: MTELETAMGMIIDVFSRYSGSEGSTQTLTKGELKVLMEKELPGFLQSGKDKDAVDKLLKDLDANGDAQVDFSEFIVFVAAITSACHKYFEKAGLK
